{"sequences": {"note": "Sequences of proteins named here, by UniProt entry; tags and fusion partners are left off. Residues count along the entry.", "UniProt P15999, residues 44-553": "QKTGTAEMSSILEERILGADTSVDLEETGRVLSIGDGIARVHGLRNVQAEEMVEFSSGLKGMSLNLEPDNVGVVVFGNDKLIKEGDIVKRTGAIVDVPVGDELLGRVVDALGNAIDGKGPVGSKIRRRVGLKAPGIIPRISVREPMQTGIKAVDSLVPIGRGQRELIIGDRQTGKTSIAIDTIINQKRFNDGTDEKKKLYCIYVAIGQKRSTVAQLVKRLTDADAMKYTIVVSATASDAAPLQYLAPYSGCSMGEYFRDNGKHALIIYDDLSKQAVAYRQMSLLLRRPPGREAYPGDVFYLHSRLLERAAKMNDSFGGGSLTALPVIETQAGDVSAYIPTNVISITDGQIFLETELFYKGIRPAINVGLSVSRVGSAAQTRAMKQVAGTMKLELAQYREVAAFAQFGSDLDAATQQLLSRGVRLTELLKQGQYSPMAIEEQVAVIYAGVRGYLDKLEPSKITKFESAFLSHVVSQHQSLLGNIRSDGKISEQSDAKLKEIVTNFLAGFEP", "UniProt P02091": "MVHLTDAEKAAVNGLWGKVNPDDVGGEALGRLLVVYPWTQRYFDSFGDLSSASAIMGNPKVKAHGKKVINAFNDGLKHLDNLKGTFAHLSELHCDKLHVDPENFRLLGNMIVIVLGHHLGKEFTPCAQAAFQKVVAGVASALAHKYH"}, "source": "paper PMC10047868", "target": "ATP synthase subunit a (ATP5A), rat (rat (endogenous in rat liver)) (UniProt P15999)", "assay": "co-IP; anti-ATP5A antibody on Dynabeads (Dynabeads Co-Immunoprecipitation Kit), rat liver lysate (text: mitochondria isolated from rat liver tissue); detection by Western blot", "note": "No constants are given. Whether binding was seen depends on the method and setting. Binding seen in cells or lysates may run through a third protein. Some results given as binding are weak or reduced against the parent protein; the word gives no strength."}
{"substance": "Haemoglobin beta, rat (from UniProt P02091 1-147)", "values": [{"measurement": "binding", "result": "binds"}]}
